In patent US10702592B2, “Peptides and combination of peptides for use in immunotherapy against NHL and other cancers” (Immatics Biotechnologies GmbH, priority 2016, dated 2020):

Columns and labels:
[1] = tested on: NHL samples; test: Identification and label-free LC-MS quantitation of HLA-presented peptides: presentation profile/score, NHL vs normal tissues; design: species or system human; key: very highly over-presented on tumors compared to a panel of normal tissues (+++); highly over-presented on tumors compared to a panel of normal tissues (++); over-presented on tumors compared to a panel of normal tissues (+); settings: NHL tumors compared to a panel of normal tissues
[2] = tested on: other tumor types (tumor samples vs normal tissues); test: LC-MS detection / over-presentation of peptides on additional tumor types; design: species or system human; settings: for Other relevant organs/diseases: additional tumor types on which the peptide was found: over-presented on more than 5% of measured tumor samples, or presented on more than 5% with ratio of geometric means tumor vs normal tissues larger than 3; for Other relevant organs / diseases (additional tumor types with over-presentation): over-presented on >5% of measured tumor samples, or presented on >5% with ratio of geometric means tumor vs normal >3

| Substance | Peptide Presentation [1] | Other relevant organs/diseases [2] | Other relevant organs / diseases (additional tumor types with over-presentation) [2] |
| --- | --- | --- | --- |
| 194 (SLAPFDREPFTL; listed as Homo sapiens) [compound 194] | +++ | NSCLC | Melanoma, Gallbladder Cancer, Bile Duct Cancer, HNSCC |
| 222 (FLIETGTLL; listed as Homo sapiens) [compound 222] | + | CLL, BRCA, Uterine Cancer |  |
| 20 (YLIAGGDRWL; listed as Homo sapiens) [compound 20] | +++ | NSCLC, RCC, CLL, BRCA, Melanoma |  |
| 30 (ILSTLDVEL; listed as Homo sapiens) [compound 30] | +++ | CRC, Melanoma, Uterine Cancer | SCLC, Urinary Bladder Cancer, Gallbladder Cancer, Bile Duct Cancer, AML, HNSCC |
| 86 (GLATIRAYL; listed as Homo sapiens) [compound 86] | +++ | RCC, Melanoma, Uterine Cancer |  |
| 82 (FLIDGSSSV; listed as Homo sapiens) [compound 82] | +++ | CLL |  |
| 126 (GLSIFIYRL; listed as Homo sapiens) [compound 126] | +++ | Melanoma, Urinary bladder cancer |  |
| 279 (NLAGENILNPL; listed as Homo sapiens) [compound 279] | ++ | CLL, Urinary bladder cancer, Uterine Cancer |  |
| 220 (FLAEAPTAL; listed as Homo sapiens) [compound 220] | ++ |  | AML |
| 77 (ALLDVSNNYGI; listed as Homo sapiens) [compound 77] | +++ | HCC, CLL, Esophageal Cancer, OC, Urinary bladder cancer |  |
| 221 (FLAPDNSLLLA; listed as Homo sapiens) [compound 221] | +++ | Gallbladder Cancer, Bile Duct Cancer | AML |
| 5 (VLQGLTFTL; listed as Homo sapiens) [compound 5] | +++ | SCLC, CLL, BRCA, Melanoma, OC, Urinary bladder cancer, Uterine Cancer, Gallbladder Cancer, Bile Duct Cancer | HNSCC |
| 166 (SLFSEVASL; listed as Homo sapiens) [compound 166] | +++ | Melanoma | AML |
| 149 (ILNPVTTKL; listed as Homo sapiens) [compound 149] | +++ | AML |  |
| 109 (YLFQFSAAL; listed as Homo sapiens) [compound 109] | +++ | RCC, PC | HNSCC |
| 259 (TVLDGLEFKV; listed as Homo sapiens) [compound 259] | +++ | SCLC, CLL, AML, UMelanoma, terine Cancer | HNSCC |
| 201 (YLNISQVNV; listed as Homo sapiens) [compound 201] | ++ | CLL | AML |
| 55 (ILVEVDLVQA; listed as Homo sapiens) [compound 55] | ++ | CLL, Uterine Cancer | Esophageal Cancer |
| 44 (FIIEEQSFL; listed as Homo sapiens) [compound 44] | +++ | CLL, Esophageal Cancer, Gallbladder Cancer, Bile Duct Cancer | AML, HNSCC |
| 19 (VLEAILPLV; listed as Homo sapiens) [compound 19] | +++ | CLL |  |
| 185 (FIAQLNNVEL; listed as Homo sapiens) [compound 185] | + | Melanoma, OC | AML |
| 255 (GMWNPNAPVFL; listed as Homo sapiens) [compound 255] | +++ | HCC, CLL, Uterine Cancer | HNSCC |
| 287 (ILMGHSLYM; listed as Homo sapiens) [compound 287] | ++ | Gallbladder Cancer, Bile Duct Cancer |  |

| Substance | Peptide Presentation [1] | Other relevant organs/diseases [2] | Other relevant organs / diseases (additional tumor types with over-presentation) [2] |
| --- | --- | --- | --- |
| 307 (FLLPVAVKL; listed as Homo sapiens) [compound 307] | ++ |  | HNSCC |
| 263 (GLMDNEIKV; listed as Homo sapiens) [compound 263] | +++ | NSCLC, RCC, HCC, PC, Melanoma, Gallbladder Cancer, Bile Duct Cancer | HNSCC |
| 296 (FILEPLYKI; listed as Homo sapiens) [compound 296] | ++ | CLL, Esophageal Cancer, OC, Uterine Cancer | AML |
| 88 (GLFDNRSGLPEA; listed as Homo sapiens) [compound 88] | +++ | Urinary bladder cancer, Uterine Cancer | AML, HNSCC |
| 85 (GLAPAEVVVATVA; listed as Homo sapiens) [compound 85] | +++ | CLL, Melanoma |  |
| 93 (KLLGSLQLL; listed as Homo sapiens) [compound 93] | +++ | RCC, BRCA |  |
| 226 (GVIDPVPEV; listed as Homo sapiens) [compound 226] | + | HCC, CLL, AML, Melanoma, OC, Gallbladder Cancer, Bile Duct Cancer | HNSCC |
| 106 (VLYELLQYI; listed as Homo sapiens) [compound 106] | +++ | Gallbladder Cancer, Bile Duct Cancer | HNSCC |
| 258 (RIYPFLLMV; listed as Homo sapiens) [compound 258] | +++ | NSCLC, SCLC, RCC, HCC, CLL, AML, Melanoma, Urinary bladder cancer, Gallbladder Cancer, Bile Duct Cancer | CRC |
| 302 (SLAELDEKISA; listed as Homo sapiens) [compound 302] | + | NSCLC, CLL, Melanoma, Esophageal Cancer, Urinary bladder cancer | Uterine Cancer, HNSCC |
| 80 (YLFDEIDQA; listed as Homo sapiens) [compound 80] | +++ | CLL, AML, Uterine Cancer |  |
| 138 (NLINNIFEL; listed as Homo sapiens) [compound 138] | + | CLL, AML, Urinary bladder cancer |  |
| 152 (KIMYTLVSV; listed as Homo sapiens) [compound 152] | +++ | HCC | AML |
| 246 (KLPVPLESV; listed as Homo sapiens) [compound 246] | + | CLL, Melanoma | AML |
| 233 (MLEVHIPSV; listed as Homo sapiens) [compound 233] | ++ | CLL |  |
| 243 (GLPDLDIYL; listed as Homo sapiens) [compound 243] | +++ | HCC, CLL, AML, Melanoma, Uterine Cancer |  |
| 15 (IIIEDLLEA; listed as Homo sapiens) [compound 15] | +++ | BRCA, Melanoma, Uterine Cancer |  |
| 16 (TLIAAILYL; listed as Homo sapiens) [compound 16] | +++ | CLL, AML, Gallbladder Cancer, Bile Duct Cancer | SCLC, HNSCC |
| 36 (VILDIPLLFET; listed as Homo sapiens) [compound 36] | +++ | CLL, BRCA, Melanoma, Uterine Cancer | SCLC, AML, HNSCC |
| 215 (QLFEEEIEL; listed as Homo sapiens) [compound 215] | + | RCC, Esophageal Cancer, OC, Uterine Cancer, Gallbladder Cancer, Bile Duct Cancer |  |
| 124 (FLGVVVPTV; listed as Homo sapiens) [compound 124] | +++ | CLL, Melanoma, OC, Uterine Cancer | AML, HNSCC |
| 218 (ALDQFLEGI; listed as Homo sapiens) [compound 218] | + | CLL, BRCA, Urinary bladder cancer, Uterine Cancer | HNSCC |
| 101 (SLDQSTWNV; listed as Homo sapiens) [compound 101] | +++ | CLL |  |
